Assay results as given in publication PMC5974324.
Results are given in words; binding and its absence hold for the method and conditions named. In cells and extracts the contact can be indirect. Some entries that bind do so weakly or less than the wild type.

Protein sequences, listed by entry. Tags and fused reporters are not part of them.
UniProt O95863: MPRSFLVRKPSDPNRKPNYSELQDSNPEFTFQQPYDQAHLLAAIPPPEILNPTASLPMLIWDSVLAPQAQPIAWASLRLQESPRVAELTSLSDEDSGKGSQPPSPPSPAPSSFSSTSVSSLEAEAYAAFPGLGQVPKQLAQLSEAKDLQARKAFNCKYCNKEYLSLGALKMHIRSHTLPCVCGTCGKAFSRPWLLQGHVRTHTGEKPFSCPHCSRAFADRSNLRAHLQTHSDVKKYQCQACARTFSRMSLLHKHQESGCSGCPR
UniProt Q13547: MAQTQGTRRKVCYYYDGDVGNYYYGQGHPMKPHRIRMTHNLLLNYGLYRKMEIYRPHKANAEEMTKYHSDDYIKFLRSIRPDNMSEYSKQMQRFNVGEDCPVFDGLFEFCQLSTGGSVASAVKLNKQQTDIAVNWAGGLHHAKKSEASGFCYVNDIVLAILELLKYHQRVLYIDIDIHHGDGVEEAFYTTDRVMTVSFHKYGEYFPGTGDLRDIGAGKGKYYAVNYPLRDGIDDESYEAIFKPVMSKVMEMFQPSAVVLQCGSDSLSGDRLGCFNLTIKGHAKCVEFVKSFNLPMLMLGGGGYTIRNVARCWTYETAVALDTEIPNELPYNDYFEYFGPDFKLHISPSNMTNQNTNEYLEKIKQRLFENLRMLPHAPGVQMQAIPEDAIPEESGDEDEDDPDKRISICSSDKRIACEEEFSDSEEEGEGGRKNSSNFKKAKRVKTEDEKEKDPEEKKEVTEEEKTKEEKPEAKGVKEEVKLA
UniProt Q92769: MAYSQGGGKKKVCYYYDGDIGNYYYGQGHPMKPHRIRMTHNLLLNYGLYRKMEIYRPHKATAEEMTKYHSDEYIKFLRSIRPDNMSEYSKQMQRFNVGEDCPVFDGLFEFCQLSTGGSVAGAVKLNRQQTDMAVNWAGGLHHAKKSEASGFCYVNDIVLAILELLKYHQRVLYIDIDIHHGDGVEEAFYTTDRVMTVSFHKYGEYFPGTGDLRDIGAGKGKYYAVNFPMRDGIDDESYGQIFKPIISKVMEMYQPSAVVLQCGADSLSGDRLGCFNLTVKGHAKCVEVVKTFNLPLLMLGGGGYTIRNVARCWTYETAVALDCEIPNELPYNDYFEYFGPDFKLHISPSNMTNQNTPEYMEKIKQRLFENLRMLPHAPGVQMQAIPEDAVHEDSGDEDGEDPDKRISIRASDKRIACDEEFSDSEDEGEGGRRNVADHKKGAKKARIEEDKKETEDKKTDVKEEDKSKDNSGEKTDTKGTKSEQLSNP

Target: SNAIL (snail family zinc finger 1; SNAI1) (human (endogenous in RH30)) (UniProt O95863)
Assay: co-IP; 100 ug nuclear extract of RH30 cells (Nuclear Complex Co-IP Kit), 2 ug anti-SNAIL antibody or no antibody, IP Low Buffer, Protein G beads; Western blot of the precipitate

binding	Substance
binds	histone deacetylase 1 (HDAC1) (from UniProt Q13547 1-482)
binds	histone deacetylase 2 (HDAC2) (from UniProt Q92769 1-488)
